Source: paper PMC8561924

Sequences of proteins named here, by UniProt entry; tags and fusion partners are left off. A change or cut given only in a name is not applied to a line headed by its entry.
UniProt Q03135: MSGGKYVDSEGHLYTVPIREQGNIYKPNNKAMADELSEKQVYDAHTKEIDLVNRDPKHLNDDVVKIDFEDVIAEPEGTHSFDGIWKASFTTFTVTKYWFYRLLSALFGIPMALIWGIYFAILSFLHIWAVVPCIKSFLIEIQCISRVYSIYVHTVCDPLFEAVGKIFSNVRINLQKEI
UniProt Q96QB1: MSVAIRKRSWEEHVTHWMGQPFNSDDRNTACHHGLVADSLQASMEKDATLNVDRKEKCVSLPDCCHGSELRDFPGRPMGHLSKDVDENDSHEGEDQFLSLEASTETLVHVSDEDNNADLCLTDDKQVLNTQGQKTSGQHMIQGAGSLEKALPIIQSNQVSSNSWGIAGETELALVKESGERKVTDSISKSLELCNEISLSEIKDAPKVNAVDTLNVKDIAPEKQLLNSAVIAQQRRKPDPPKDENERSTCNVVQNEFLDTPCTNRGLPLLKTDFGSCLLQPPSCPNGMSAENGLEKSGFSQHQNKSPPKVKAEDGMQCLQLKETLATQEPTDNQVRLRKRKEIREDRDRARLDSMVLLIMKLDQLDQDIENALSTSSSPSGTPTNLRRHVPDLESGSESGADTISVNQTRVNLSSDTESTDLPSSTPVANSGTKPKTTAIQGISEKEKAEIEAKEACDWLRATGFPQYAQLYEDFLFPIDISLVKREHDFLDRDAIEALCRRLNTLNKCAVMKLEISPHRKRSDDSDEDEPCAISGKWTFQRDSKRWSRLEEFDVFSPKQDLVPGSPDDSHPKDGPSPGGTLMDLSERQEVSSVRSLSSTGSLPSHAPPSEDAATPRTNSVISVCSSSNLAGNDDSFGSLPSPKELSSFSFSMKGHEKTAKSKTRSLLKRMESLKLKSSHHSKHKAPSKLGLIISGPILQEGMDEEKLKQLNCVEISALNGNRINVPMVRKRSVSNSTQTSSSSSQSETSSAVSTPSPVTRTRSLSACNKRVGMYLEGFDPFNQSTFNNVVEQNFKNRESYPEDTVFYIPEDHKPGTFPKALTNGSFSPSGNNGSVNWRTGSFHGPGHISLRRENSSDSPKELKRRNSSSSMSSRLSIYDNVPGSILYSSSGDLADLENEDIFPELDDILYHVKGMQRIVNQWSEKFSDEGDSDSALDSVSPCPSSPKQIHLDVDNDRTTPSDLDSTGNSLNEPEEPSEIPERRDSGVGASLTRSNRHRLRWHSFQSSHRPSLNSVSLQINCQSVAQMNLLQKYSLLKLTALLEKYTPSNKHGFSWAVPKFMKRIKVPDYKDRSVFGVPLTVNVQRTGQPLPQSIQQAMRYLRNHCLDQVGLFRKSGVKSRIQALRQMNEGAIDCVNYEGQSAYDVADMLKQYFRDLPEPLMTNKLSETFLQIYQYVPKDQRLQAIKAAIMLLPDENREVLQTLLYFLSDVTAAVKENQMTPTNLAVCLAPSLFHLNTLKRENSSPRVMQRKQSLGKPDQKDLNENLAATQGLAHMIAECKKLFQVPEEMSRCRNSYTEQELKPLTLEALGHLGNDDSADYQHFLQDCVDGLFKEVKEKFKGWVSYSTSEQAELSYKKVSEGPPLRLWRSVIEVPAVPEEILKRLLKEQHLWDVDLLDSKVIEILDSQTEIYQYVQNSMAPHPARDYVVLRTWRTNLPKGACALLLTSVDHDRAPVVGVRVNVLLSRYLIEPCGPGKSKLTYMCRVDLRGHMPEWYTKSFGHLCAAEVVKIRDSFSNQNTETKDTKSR

Assays:
[1] = biological target: T1, Phospholipase C delta 1 (PLCD1), endogenous (human (endogenous in H1703, H358, 293T)) (UniProt P51178); experiment: co-IP; PLCD1 IP from H358 cells transfected with empty vector or a plasmid encoding DLC1 848–1091; Fig. 2E
T1 sequence: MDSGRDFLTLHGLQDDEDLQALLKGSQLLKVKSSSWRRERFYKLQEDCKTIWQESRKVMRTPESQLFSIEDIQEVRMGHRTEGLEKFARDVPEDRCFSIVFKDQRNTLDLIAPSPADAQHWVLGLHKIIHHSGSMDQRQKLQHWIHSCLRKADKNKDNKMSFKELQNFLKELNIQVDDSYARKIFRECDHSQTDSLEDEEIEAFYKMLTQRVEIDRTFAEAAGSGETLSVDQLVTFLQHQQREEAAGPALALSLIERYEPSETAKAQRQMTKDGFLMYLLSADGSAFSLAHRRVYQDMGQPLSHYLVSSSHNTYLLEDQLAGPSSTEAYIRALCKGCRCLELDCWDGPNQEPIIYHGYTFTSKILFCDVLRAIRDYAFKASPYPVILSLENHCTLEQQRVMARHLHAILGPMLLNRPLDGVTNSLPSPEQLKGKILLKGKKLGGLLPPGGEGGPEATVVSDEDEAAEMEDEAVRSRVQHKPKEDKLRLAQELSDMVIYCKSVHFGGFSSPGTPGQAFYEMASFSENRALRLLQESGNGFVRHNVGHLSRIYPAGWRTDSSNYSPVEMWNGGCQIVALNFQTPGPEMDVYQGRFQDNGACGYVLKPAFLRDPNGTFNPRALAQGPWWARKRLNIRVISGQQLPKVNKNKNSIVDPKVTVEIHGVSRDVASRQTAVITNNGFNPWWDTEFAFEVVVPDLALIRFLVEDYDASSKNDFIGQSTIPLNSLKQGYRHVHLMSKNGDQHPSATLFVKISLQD

[2] = biological target: T1, Phospholipase C delta 1 (PLCD1), endogenous (human (endogenous in H1703, H358, 293T)); experiment: co-IP; competition: PLCD1 IP (Fig. 2B) or Caveolin-1 IP (Fig. 2C) from H1703 cells transfected with GST control or GST Caveolin-1 (2B) or GST PLCD1 (2C); endogenous DLC1 blotted
[3] = biological target: Caveolin-1, endogenous (human (endogenous in H1703, H358, 293T)) (UniProt Q03135); experiment: as above
[4] = biological target: T1, Phospholipase C delta 1 (PLCD1), endogenous (human (endogenous in H1703, H358, 293T)); experiment: co-IP; endogenous PLCD1, DLC1 and Caveolin-1 in H1703 cell lysate (1X RIPA buffer); Fig. 1A
[5] = biological target: T1, Phospholipase C delta 1 (PLCD1), endogenous (human (endogenous in H1703, H358, 293T)); experiment: co-IP; IP with PLCD1 or Caveolin-1 antibodies from H358 (DLC1-negative) cells transfected with empty vector or pCDNA DLC1; Fig. 2D
[6] = biological target: T1, Phospholipase C delta 1 (PLCD1), endogenous (human (endogenous in H1703, H358, 293T)); experiment: co-IP; endogenous PLCD1 immunoprecipitated from lysates of H358 cells (no DLC1 protein) overexpressing GFP or GFP-DLC1 fragments; Western blot; Fig. 1C
[7] = biological target: T1, Phospholipase C delta 1 (PLCD1), endogenous (human (endogenous in H1703, H358, 293T)); experiment: co-IP; Caveolin-1 or PLCD1 IP from cells overexpressing GFP DLC1 START 848–1091 wild type or mutant; 293T with GFP control (Fig. 4B); with Lactadherin-C2 3A mutant (Supplementary Fig. 4A); with or without 100 μM PS (Supplementary Figure 6C, cells not told)
[8] = biological target: T1, Phospholipase C delta 1 (PLCD1), endogenous (human (endogenous in H1703, H358, 293T)); experiment: condition: only with the C2 domain of Lactadherin (GFP-LACT-C2) co-expressed in the cells; co-IP; Caveolin-1 or PLCD1 IP from 293T cells overexpressing GFP DLC1 START 848–1091 together with the C2 domain of Lactadherin (GFP-LACT-C2), which sequesters PS; Fig. 4B
[9] = biological target: T1, Phospholipase C delta 1 (PLCD1), endogenous (human (endogenous in H1703, H358, 293T)); experiment: co-IP; IP of endogenous PLCD1 or Caveolin-1 from lysates of 293T cells overexpressing GFP-DLC1 wild type or mutants (full length); with or without 100 μM PS added to the binding reaction (Fig. 3B, 3C bottom, 5E, 6B, 6C)
[10] = biological target: T2, GST PLCD1 1–140 (PH domain-containing region) (UniProt P51178); experiment: pull-down; glutathione Sepharose-4B pull-down from lysates of 293T cells co-transfected with GST or GST fusions and GFP or GFP-DLC1 wild type or mutants; 4 h at 4 °C, 1X RIPA washes; GFP and GST Western blot (Fig. 1F, 5D)
T2 sequence: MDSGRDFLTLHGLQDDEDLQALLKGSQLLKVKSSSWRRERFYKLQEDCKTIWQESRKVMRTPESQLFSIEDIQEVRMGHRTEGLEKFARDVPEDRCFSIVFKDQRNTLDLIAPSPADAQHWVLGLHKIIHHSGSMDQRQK

[11] = biological target: T3, GST PLCD1 600–756 (C2 domain-containing region) (UniProt P51178); experiment: as above
T3 sequence: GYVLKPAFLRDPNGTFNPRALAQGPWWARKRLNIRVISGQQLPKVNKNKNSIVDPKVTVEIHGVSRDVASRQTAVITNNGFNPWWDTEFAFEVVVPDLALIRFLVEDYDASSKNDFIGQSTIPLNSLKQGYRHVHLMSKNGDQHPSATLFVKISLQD

[12] = biological target: DLC1 (Deleted in liver cancer 1), endogenous (human (endogenous in H1703)) (UniProt Q96QB1); experiment: co-IP; competition: PLCD1 IP (Fig. 2B) or Caveolin-1 IP (Fig. 2C) from H1703 cells transfected with GST control or GST Caveolin-1 (2B) or GST PLCD1 (2C); endogenous DLC1 blotted
[13] = biological target: MBP-DLC1 848–1091 (human); experiment: pull-down; MBP or MBP-DLC1 848–1091 purified from E. coli on amylose resin, incubated 4 h at 4 °C with 293T whole cell lysates expressing GST or GST fusions; 1X RIPA washes; GST Western blot; with or without 100 μM PS added (Fig. 1D, 1G, 3D); only the target purified
[14] = biological target: MBP-DLC1 848–1091 (human); experiment: pull-down; bacterially purified DLC1-START (MBP-DLC1 848–1091) with lysates of CRL-1739 cells (no endogenous Caveolin-1 or PLCD1) expressing Caveolin-1 or the C2 domain of PLCD1; with or without PS; Supplementary figure 3C; only the target purified

Molecule: DLC1 (Deleted in liver cancer 1), endogenous (from UniProt Q96QB1-1)
- binding [2]: binds
- binding [3]: binds
- binding [4]: binds

Molecule: DLC1 expressed from pCDNA DLC1 (human)
- binding [5]: binds

Molecule: GFP-DLC1 1–600 (human) (domain or fragment)
- binding [6]: binds

Molecule: GFP-DLC1 80–400 (human) (domain or fragment)
- binding [6]: binds

Molecule: GFP-DLC1 609–848 (GAP domain) (human) (domain or fragment)
- binding [6]: no binding

Molecule: GFP-DLC1 848–1091 (START domain-containing region) (human) (domain or fragment)
- binding [6]: binds
- binding [7]: binds
- binding [8]: no binding

Molecule: GFP-DLC1 848–1091 C1036S (isolated mutant START domain) (human) (domain or fragment)
- binding [7]: binds

Molecule: GFP-DLC1 848–1091 R947C (isolated mutant START domain) (human) (domain or fragment)
- binding [7]: binds

Molecule: GFP-DLC1 A1017T (human)
- binding [9]: binds

Molecule: GFP-DLC1 C1005F (human)
- binding [9]: binds

Molecule: GFP-DLC1 C1036S (human)
- binding [9]: binds

Molecule: GFP-DLC1 L930P (human)
- binding [9]: binds

Molecule: GFP-DLC1 S912L (human)
- binding [9]: binds

Molecule: GFP-DLC1 wild type (full-length) (human)
- binding [10]: binds
- binding [11]: binds
- binding [9]: binds

B3: GST PLCD1 1–140 (PH domain-containing region) (domain or fragment, UniProt P51178 1-140)
chain: T2 sequence
- binding [13]: binds

Second part, the molecule after the results:

- binding [1]: binds
Molecule: DLC1 848–1091 expressed from pCDNA DLC1 848–1091 (human) (domain or fragment)

- binding [9]: binds
Molecule: GFP-DLC1 E966K (human)

- binding [9]: binds
Molecule: GFP-DLC1 R947C (human)

- binding [12]: binds
Molecule: GST-Caveolin-1 (from UniProt Q03135 1-178)

- binding [13]: binds
B1: GST PLCD1 450–600 (domain or fragment, UniProt P51178 450-600)
chain: GEGGPEATVVSDEDEAAEMEDEAVRSRVQHKPKEDKLRLAQELSDMVIYCKSVHFGGFSSPGTPGQAFYEMASFSENRALRLLQESGNGFVRHNVGHLSRIYPAGWRTDSSNYSPVEMWNGGCQIVALNFQTPGPEMDVYQGRFQDNGACG

- binding [13]: binds
- binding [12]: binds
B2: GST PLCD1 (1–756) (protein, UniProt P51178 1-756)
chain: T1 sequence

- binding [13]: binds
- binding [14]: binds
B4: GST PLCD1 600–756 (C2 domain-containing region) (domain or fragment, UniProt P51178 600-756)
chain: T3 sequence

These are yes or no findings as the source states them, for the method shown. Binding seen in cells or lysates may run through a third protein. For part of these data: Binding calls can cover weak binding; strength is not graded here. For part of these data: Where a sequence is shown, tags or fusion partners need not be part of it. Each block holds one molecule with its values, some of them ahead of it.
